# Measured values reported in the supplement of paper PMC8728848.
# Some of the results follow.
# B1: Blon0732mut (Bifidobacterium longum) (protein)
# chain: MPTSEHKADDATRHLTLIPAPVTLEYTHGTALIGPLVTIEDADQSWETLPIEQLSDELRHRYGVTVLRRRTHGTVISLGLDSRLAHDEYTLDVSESEGIRVRGGGESGLRYGLQTLRQIIGQTSRAIPCLHIQDKPAFAVRAYSLDVTRGRVPTMEFLTWFVDQLALYKYNQFQLYVEHAFAFVELSEAWRGTDPLTAADITYLDEYCARRGIELVPSLATFGHMYMNLRTREHRGLGEFPEDADRPFSFIERMEHHTLNAADPKAHDFASRLIEEYAPLFRSKSFNIGGNETFDLGRGRSAQDAPEAGRDELYAGFVRDLCETLARHGRQPMLWADIALESPRTMDLLPGDITMLNWMYEPQIDESKIQTIATQGRRQFVCPAVRAWSRFFPDYAGAWLNTYHMALAGTKYDAEGMVVTDWGDYGHVNDPRLSVPGLCYGAQNAWNPIEIDAHEMNRRISALVYGDESGRIMDCLARIDSDGVSFPWDLAVQVLELEYGSGTGALNMDVAACMERSSGGKLTLDRTLGCDDARRRMLQWNRERIERRRDCDQVLRDCGDAFAGLDKGGLTAEFLSVMLDGQRLFNELGEELLALADGKDVGSGANRLAADLELWFERYRAQWLSVGRHAELARIAHVVWSLADILRRGAL
# Key:
# Assay in all cases: glycan array binding signal (z-score within array); higher = stronger binding
# Conditions in all cases: glycan notation: IUPAC condensed, linker removed
# [1] = target: Gal(b1-4)GlcNAc(b1-3)Gal(b1-4)GlcNAc(b1-2)[Gal(b1-4)GlcNAc(b1-3)Gal(b1-4)GlcNAc(b1-6)]Man(a1-6)[Gal(b1-4)GlcNAc(b1-3)Gal(b1-4)GlcNAc(b1-2)Man(a1-3)]Man(b1-4)GlcNAc(b1-4)[Fuc(a1-6)]GlcNAc
# Method in brief: (§1)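 From the Consortium for Functional Glycomics database, 3228 arrays were curated, keeping only those whose protein sequence was available. Binding is given as a within-array Z-score averaged across arrays sharing a protein sequence and across linkers. Negative Z-scores can be read as non-binding.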
# [2] = target: Gal(b1-4)GlcNAc(b1-3)Gal(b1-4)GlcNAc(b1-3)Gal(b1-4)GlcNAc
# Method in brief: as §1
# [3] = target: Gal(b1-4)GlcNAc(b1-3)Gal(b1-4)GlcNAc(b1-3)Gal(b1-4)GlcNAc(b1-2)Man(a1-3)[Gal(b1-4)GlcNAc(b1-3)Gal(b1-4)GlcNAc(b1-3)Gal(b1-4)GlcNAc(b1-2)Man(a1-6)]Man(b1-4)GlcNAc(b1-4)GlcNAc
# Method in brief: as §1
# [4] = target: Gal(b1-4)GlcNAc(b1-3)Gal(b1-4)GlcNAc(b1-3)Gal(b1-4)GlcNAc(b1-2)Man(a1-3)[Gal(b1-4)GlcNAc(b1-3)Gal(b1-4)GlcNAc(b1-3)Gal(b1-4)GlcNAc(b1-2)Man(a1-6)]Man(b1-4)GlcNAc(b1-4)[Fuc(a1-6)]GlcNAc
# Method in brief: as §1
# [5] = target: Gal(b1-4)GlcNAc(b1-3)Gal(b1-4)GlcNAc(b1-3)Gal(b1-4)GlcNAc(b1-2)[Gal(b1-4)GlcNAc(b1-3)Gal(b1-4)GlcNAc(b1-3)Gal(b1-4)GlcNAc(b1-6)]Man(a1-6)[Gal(b1-4)GlcNAc(b1-3)Gal(b1-4)GlcNAc(b1-3)Gal(b1-4)GlcNAc(b1-2)Man(a1-3)]Man(b1-4)GlcNAc(b1-4)[Fuc(a1-6)]GlcNAc
# Method in brief: as §1
# [6] = target: Gal(b1-4)GlcNAc(b1-3)Gal(b1-4)GlcNAc(b1-3)Gal(b1-4)GlcNAc(b1-3)Gal(b1-4)GlcNAc(b1-2)Man(a1-3)[Gal(b1-4)GlcNAc(b1-3)Gal(b1-4)GlcNAc(b1-3)Gal(b1-4)GlcNAc(b1-3)Gal(b1-4)GlcNAc(b1-2)Man(a1-6)]Man(b1-4)GlcNAc(b1-4)GlcNAc
# Method in brief: as §1
# [7] = target: Gal(b1-4)GlcNAc(b1-3)Gal(b1-4)GlcNAc(b1-3)Gal(b1-4)GlcNAc(b1-3)Gal(b1-4)GlcNAc(b1-2)Man(a1-3)[Gal(b1-4)GlcNAc(b1-3)Gal(b1-4)GlcNAc(b1-3)Gal(b1-4)GlcNAc(b1-3)Gal(b1-4)GlcNAc(b1-2)Man(a1-6)]Man(b1-4)GlcNAc(b1-4)[Fuc(a1-6)]GlcNAc
# Method in brief: as §1
# [8] = target: Gal(b1-4)GlcNAc(b1-3)Gal(b1-4)GlcNAc(b1-3)Gal(b1-4)GlcNAc(b1-3)Gal(b1-4)GlcNAc(b1-2)[Gal(b1-4)GlcNAc(b1-3)Gal(b1-4)GlcNAc(b1-3)Gal(b1-4)GlcNAc(b1-3)Gal(b1-4)GlcNAc(b1-6)]Man(a1-6)[Gal(b1-4)GlcNAc(b1-3)Gal(b1-4)GlcNAc(b1-3)Gal(b1-4)GlcNAc(b1-3)Gal(b1-4)GlcNAc(b1-2)Man(a1-3)]Man(b1-4)GlcNAc(b1-4)[Fuc(a1-6)]GlcNAc
# Method in brief: as §1
# [9] = target: Gal(b1-4)GlcNAc(b1-3)Gal(b1-4)GlcNAc(b1-3)Gal(b1-4)GlcNAc(b1-3)Gal(b1-4)GlcNAc(b1-3)Gal(b1-4)GlcNAc(b1-2)Man(a1-3)[Gal(b1-4)GlcNAc(b1-3)Gal(b1-4)GlcNAc(b1-3)Gal(b1-4)GlcNAc(b1-3)Gal(b1-4)GlcNAc(b1-3)Gal(b1-4)GlcNAc(b1-2)Man(a1-6)]Man(b1-4)GlcNAc(b1-4)GlcNAc
# Method in brief: as §1
# [10] = target: Gal(b1-4)GlcNAc(b1-3)Gal(b1-4)GlcNAc(b1-3)Gal(b1-4)GlcNAc(b1-3)Gal(b1-4)GlcNAc(b1-3)Gal(b1-4)GlcNAc(b1-2)Man(a1-3)[Gal(b1-4)GlcNAc(b1-3)Gal(b1-4)GlcNAc(b1-3)Gal(b1-4)GlcNAc(b1-3)Gal(b1-4)GlcNAc(b1-3)Gal(b1-4)GlcNAc(b1-2)Man(a1-6)]Man(b1-4)GlcNAc(b1-4)[Fuc(a1-6)]GlcNAc
# Method in brief: as §1
# [11] = target: Gal(b1-4)GlcNAc(b1-3)Gal(b1-4)GlcNAc(b1-3)Gal(b1-4)GlcNAc(b1-3)Gal(b1-4)GlcNAc(b1-3)Gal(b1-4)GlcNAc(b1-2)[Gal(b1-4)GlcNAc(b1-3)Gal(b1-4)GlcNAc(b1-3)Gal(b1-4)GlcNAc(b1-3)Gal(b1-4)GlcNAc(b1-3)Gal(b1-4)GlcNAc(b1-6)]Man(a1-6)[Gal(b1-4)GlcNAc(b1-3)Gal(b1-4)GlcNAc(b1-3)Gal(b1-4)GlcNAc(b1-3)Gal(b1-4)GlcNAc(b1-3)Gal(b1-4)GlcNAc(b1-2)Man(a1-3)]Man(b1-4)GlcNAc(b1-4)[Fuc(a1-6)]GlcNAc
# Method in brief: as §1
# [12] = target: Gal(b1-4)GlcNAc(b1-3)Gal(b1-4)GlcNAc(b1-3)Gal(b1-4)GlcNAc(b1-3)Gal(b1-4)GlcNAc(b1-3)Gal(b1-4)GlcNAc(b1-3)Gal(b1-4)GlcNAc(b1-2)Man(a1-3)[Gal(b1-4)GlcNAc(b1-3)Gal(b1-4)GlcNAc(b1-3)Gal(b1-4)GlcNAc(b1-3)Gal(b1-4)GlcNAc(b1-3)Gal(b1-4)GlcNAc(b1-3)Gal(b1-4)GlcNAc(b1-2)Man(a1-6)]Man(b1-4)GlcNAc(b1-4)GlcNAc
# Method in brief: as §1
# [13] = target: Gal(b1-4)GlcNAc(b1-3)Gal(b1-4)GlcNAc(b1-3)GalNAc
# Method in brief: as §1
# [14] = target: Gal(b1-4)GlcNAc(b1-3)Gal(b1-4)GlcNAc(b1-3)[Gal(b1-4)GlcNAc(b1-3)Gal(b1-4)GlcNAc(b1-6)]GalNAc
# Method in brief: as §1
# [15] = target: Gal(b1-4)GlcNAc(b1-3)Gal(b1-4)GlcNAc(b1-6)[Gal(b1-3)]GalNAc
# Method in brief: as §1
# [16] = target: Gal(b1-4)GlcNAc(b1-3)Gal(b1-4)[Fuc(a1-3)]GlcNAc(b1-3)Gal(b1-4)[Fuc(a1-3)]GlcNAc
# Method in brief: as §1
# [17] = target: Gal(b1-4)GlcNAc(b1-3)GalNAc
# Method in brief: as §1
# [18] = target: Gal(b1-4)GlcNAc(b1-3)[Fuc(a1-3)GlcNAc(b1-6)]Gal(b1-4)Glc
# Method in brief: as §1
# [19] = target: Gal(b1-4)GlcNAc(b1-3)[Gal(b1-4)GlcNAc(b1-6)]Gal(b1-4)GlcNAc
# Method in brief: as §1
# [20] = target: Gal(b1-4)GlcNAc(b1-3)[GlcNAc(b1-6)]Gal(b1-4)GlcNAc
# Method in brief: as §1
# [21] = target: Gal(b1-4)GlcNAc(b1-6)Gal(b1-4)GlcNAc
# Method in brief: as §1
# [22] = target: Gal(b1-4)GlcNAc(b1-6)GalNAc
# Method in brief: as §1
# [23] = target: Gal(b1-4)GlcNAc(b1-6)[Gal(b1-3)]GalNAc
# Method in brief: as §1
# [24] = target: Gal(b1-4)GlcNAc(b1-6)[Gal(b1-4)GlcNAc(b1-3)]GalNAc
# Method in brief: as §1
# Gal(b1-4)GlcNAc6P = target: Gal(b1-4)GlcNAc6P
# Method in brief: as §1
# Gal(b1-6)Gal = target: Gal(b1-6)Gal
# Method in brief: as §1
# Gal3S(b1-3)GalNAc = target: Gal3S(b1-3)GalNAc
# Method in brief: as §1
# Gal3S(b1-3)GlcNAc = target: Gal3S(b1-3)GlcNAc
# Method in brief: as §1
# [25] = target: Gal3S(b1-3)[Fuc(a1-4)]GlcNAc
# Method in brief: as §1
# Gal3S(b1-4)Glc = target: Gal3S(b1-4)Glc
# Method in brief: as §1
binder,measurement,setting,value
B1,glycan array binding signal (z-score),[1],-1.22
same,glycan array binding signal (z-score),[2],0.655
same,glycan array binding signal (z-score),[3],1.2
same,glycan array binding signal (z-score),[4],-0.478
same,glycan array binding signal (z-score),[5],-1.31
same,glycan array binding signal (z-score),[6],-0.174
same,glycan array binding signal (z-score),[7],-0.514
same,glycan array binding signal (z-score),[8],0.066
same,glycan array binding signal (z-score),[9],0.957
same,glycan array binding signal (z-score),[10],1.92
same,glycan array binding signal (z-score),[11],0.154
same,glycan array binding signal (z-score),[12],-0.584
same,glycan array binding signal (z-score),[13],-0.371
same,glycan array binding signal (z-score),[14],0.572
same,glycan array binding signal (z-score),[15],0.446
same,glycan array binding signal (z-score),[16],-1.49
same,glycan array binding signal (z-score),[17],-0.424
same,glycan array binding signal (z-score),[18],0.274
same,glycan array binding signal (z-score),[19],-0.73
same,glycan array binding signal (z-score),[20],-0.639
same,glycan array binding signal (z-score),[21],-0.268
same,glycan array binding signal (z-score),[22],0.168
same,glycan array binding signal (z-score),[23],0.232
same,glycan array binding signal (z-score),[24],1.55
same,glycan array binding signal (z-score),Gal(b1-4)GlcNAc6P,0.292
same,glycan array binding signal (z-score),Gal(b1-6)Gal,-0.313
same,glycan array binding signal (z-score),Gal3S(b1-3)GalNAc,1.16
same,glycan array binding signal (z-score),Gal3S(b1-3)GlcNAc,1.39
same,glycan array binding signal (z-score),[25],-0.29
same,glycan array binding signal (z-score),Gal3S(b1-4)Glc,1.06

# For reference, some entries already given.
binder,measurement,setting,value
B1,glycan array binding signal (z-score),[21],-0.268
same,glycan array binding signal (z-score),[22],0.168
